The supplement of paper PMC8728848
This is one part of the list.

How the values were obtained:
Assay in all cases: glycan array binding signal (z-score within array); higher = stronger binding
Settings in all cases: glycan notation: IUPAC condensed, linker removed
[1] = molecular target: Gal(b1-4)GlcNAc(b1-6)Gal(b1-4)GlcNAc
In short: (§1)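 The binding signal is a Z-score computed within each array and averaged over linkers. Arrays of the same protein sequence at different concentrations or buffers were also averaged together. Data originate from 3228 arrays in the Consortium for Functional Glycomics database, kept only where the protein sequence was available.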

[2] = molecular target: Gal(b1-4)GlcNAc(b1-6)GalNAc
In short: as §1

[3] = molecular target: Gal(b1-4)GlcNAc(b1-6)[Gal(b1-3)]GalNAc
In short: as §1

[4] = molecular target: Gal(b1-4)GlcNAc(b1-6)[Gal(b1-4)GlcNAc(b1-3)]GalNAc
In short: as §1

[5] = molecular target: Gal(b1-4)GlcNAc6P
In short: as §1

[6] = molecular target: Gal(b1-6)Gal
In short: as §1

[7] = molecular target: Gal3S(b1-3)GalNAc
In short: as §1

[8] = molecular target: Gal3S(b1-3)GlcNAc
In short: as §1

[9] = molecular target: Gal3S(b1-3)[Fuc(a1-4)]GlcNAc
In short: as §1

[10] = molecular target: Gal3S(b1-4)Glc
In short: as §1

[11] = molecular target: Gal3S(b1-4)Glc6S
In short: as §1

[12] = molecular target: Gal3S(b1-4)GlcNAc
In short: as §1

[13] = molecular target: Gal3S(b1-4)[Fuc(a1-3)]Glc6S
In short: as §1

[14] = molecular target: Gal3S(b1-4)[Fuc(a1-3)]GlcNAc
In short: as §1

[15] = molecular target: Gal3S(b1-4)[Fuc(a1-3)]GlcNAc6S
In short: as §1

[16] = molecular target: Gal3S4S(b1-4)GlcNAc
In short: as §1

[17] = molecular target: Gal3S6S(b1-4)GlcNAc
In short: as §1

[18] = molecular target: Gal3S6S(b1-4)GlcNAc6S
In short: as §1

[19] = molecular target: Gal4S(b1-4)GlcNAc
In short: as §1

[20] = molecular target: Gal4S6S(b1-4)GlcNAc
In short: as §1

[21] = molecular target: Gal6P(b1-4)GlcNAc
In short: as §1

[22] = molecular target: Gal6S(b1-3)GlcNAc
In short: as §1

[23] = molecular target: Gal6S(b1-3)GlcNAc6S
In short: as §1

B1: RsaA-N-term (Caulobacter crescentus), P35828 (protein)
chain: MAYTTAQLVTAYTNANLGKAPDAATTLTLDAYATQTQTGGLSDAAALTNTLKLVNSTTAVAIQTYQFFTGVAPSAAGLDFLVDSTTNTNDLNDAYYSKFAQENRFINFSINLATGAGAGATAFAAAYTGVSYAQTVATAYDKIIGNAVATAAGVDVAAAVAFLSRQANIDYLTAFVRANTPFTAAADIDLAVKAALIGTILNAATVSGIGGYATATAAMINDLSDGALSTDNAAGVNLFTAYPSSGVSGSTLSLTTGTDTLTGTANNDTFVAGEVAGDGSGWSHPQFEKGG
- glycan array binding signal (z-score) [1]: -2.87
- glycan array binding signal (z-score) [2]: -0.148
- glycan array binding signal (z-score) [3]: 0.646
- glycan array binding signal (z-score) [4]: -1.08
- glycan array binding signal (z-score) [5]: -0.433
- glycan array binding signal (z-score) [6]: -0.43
- glycan array binding signal (z-score) [7]: 1.7
- glycan array binding signal (z-score) [8]: -0.193
- glycan array binding signal (z-score) [9]: -0.524
- glycan array binding signal (z-score) [10]: -0.58
- glycan array binding signal (z-score) [11]: 1.58
- glycan array binding signal (z-score) [12]: 1.08
- glycan array binding signal (z-score) [13]: 0.043
- glycan array binding signal (z-score) [14]: 0.923
- glycan array binding signal (z-score) [15]: 0.377
- glycan array binding signal (z-score) [16]: 0.355
- glycan array binding signal (z-score) [17]: 1.45
- glycan array binding signal (z-score) [18]: -0.759
- glycan array binding signal (z-score) [19]: -0.165
- glycan array binding signal (z-score) [20]: -0.176
- glycan array binding signal (z-score) [21]: 0.149
- glycan array binding signal (z-score) [22]: 1.4
- glycan array binding signal (z-score) [23]: 3.01
